The whole screen tested about 410,000 compounds, of which about 18,000 (4.4%) were called active. Inconclusive means that the source gave no clear call. Such entries were picked first, then a sample of the others. Cut-off read from the data, not from the text of the source: active = activity change below about -60%; inconclusive = no clear call, values can overlap the other calls; inactive = above about -39%. Some compounds were tested as several samples or in several runs, with calls that do not always agree.
assay: qHTS Assay for inhibitors of the human cytomegalovirus (HCMV); conditions: HFF cells, HCMV-luciferase reporter, 72 h; at 57.5 µM; hits give low values
In short: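 Two-dose cell screen: HFF monolayers treated with compounds and infected with luciferase-expressing HCMV at 1 PFU/cell, 72 h at 37C, then lysed for luciferase measurement.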
% is set by controls: 0 for no effect and ±100 for the full control effect.

Structure (SMILES) | activity change, negative = inhibition
CN(Cc1cccnc1)Cc1cn[nH]c1-c1ccc(-c2ccccc2)cc1 | inactive: 5.73%
CN(Cc1ccc(Cl)c(Cl)c1)C(c1cc2ccccc2o1)c1nnnn1C(C)(C)C (stereo unspecified) | active: -77.5%
CC1CN(Cc2nnc(-c3ccccc3)o2)CC(C)O1 (stereo unspecified) | inconclusive: -43.3%
Cc1nn2c(=S)[nH]nc2[nH]c1=O | inactive: -37.9%
O=C(N/N=C/c1c(O)ccc2ccccc12)c1[nH]ncc1Br | active: -98.6%
CCOC(=O)c1ccc(NC(=O)C2CCN(S(=O)(=O)c3ccc4c(c3)CCCC(=O)N4)CC2)cc1 | inactive: -34.6%
Cc1cc(NC(=O)CCCC(=O)O)nc(C)n1 | inconclusive: -52.4%
O=C(Nc1nccs1)c1cc(-c2ccccc2)nn1-c1ccccc1 | inconclusive: -42%
O=C(NC(=S)Nc1ccc2c(c1)OCCO2)c1ccc(F)cc1Cl | inconclusive: -50.2%
Cc1ccccc1Nc1nc(N)nc(CCl)n1 | active: -101%
O=S(=O)(NCC(c1cccs1)S(=O)(=O)c1ccccc1)c1ccc(F)cc1 (stereo unspecified) | inactive: -2.17%
CC(=O)Nc1ccc(NC(=O)C2CCCN2/C=C/C(=O)C(F)(F)F)cc1 (stereo unspecified) | inconclusive: -51.8%
CCCCOc1ccc(S(=O)(=O)NCc2csc(C)n2)cc1 | active: -66.6%
CCCCNS(=O)(=O)CCNCCc1ccccc1 | inconclusive: -47.3%
CC(C)COc1ccc(C(=O)Nc2cc3nn(-c4ccccc4)nc3cc2Cl)cc1 | inactive: 26.3%
CCCCCOC(=O)CSc1n[nH]c(=O)[nH]c1=O | inconclusive: -46.8%
Cc1ccc(Sc2c(C)nn(C(=O)C3CC3)c2C)cc1 | inconclusive: -42.3%
CSc1ncc(Cl)c(C(=O)Nc2c(C)cccc2C)n1 | inconclusive: -46.7%
CN1C(=O)Cc2cc(S(=O)(=O)N3CCN(c4ccc(Cl)cc4)CC3)ccc21 | inactive: -2.13%
Cc1ccc(C)c(Nc2ncnc3nc[nH]c23)c1 | inconclusive: -41.6%
CCOc1ccc(N2C(=O)Nc3ccc(Br)cc3C2(O)C(=O)NCCCN(C)C)cc1 (stereo unspecified) | inconclusive: -46%
Cc1ccc(NC(=O)C2CCCN(S(=O)(=O)c3cccc4nonc34)C2)cc1 (stereo unspecified) | inactive: 4.6%
Fc1ccc(-c2cc(C(F)(F)F)nc(-n3cc(Cl)cn3)n2)cc1 | inconclusive: -50.4%
Fc1ccccc1-c1nc(NCc2ccco2)c2ccccc2n1 | active: -80.5%
O=C(NCCCN1CCOCC1)c1ccc2c(c1)N(Cc1ccc(F)cc1)CCS2 | inconclusive: -46.1%
CC(=N)C1=C(O)CC(c2ccccc2)CC1=O (stereo unspecified) | active: -99.5%

In a second layout: 2 of the compounds above
Cc1ccc(NC(=O)C2CCCN(S(=O)(=O)c3cccc4nonc34)C2)cc1 (stereo unspecified)
  activity change, negative = inhibition: inactive: 4.6%
Fc1ccc(-c2cc(C(F)(F)F)nc(-n3cc(Cl)cn3)n2)cc1
  activity change, negative = inhibition: inconclusive: -50.4%

Reference: PubChem BioAssay AID1259415 (National Center for Advancing Translational Sciences (NCATS), 2018)
